Results are given in words; binding and its absence hold for the method and conditions named. In cells and extracts the contact can be indirect. These calls come from enrichment with a bait or labelling near it, and not all partners need be listed.
Target: pIgR-BirA* (human) (UniProt P01833)
Experiment: proximity labelling; BioID: HEK293T cells expressing pIgR-BirA*, 50 µM biotin; NP-40 lysis; biotin-labelled proteins enriched on streptavidin agarose beads; mass spectrometry and immunoblotting

The chains behind the UniProt entries cited, without tags or fusion partners. Residues count along the entry.
UniProt P01833, residues 19-764: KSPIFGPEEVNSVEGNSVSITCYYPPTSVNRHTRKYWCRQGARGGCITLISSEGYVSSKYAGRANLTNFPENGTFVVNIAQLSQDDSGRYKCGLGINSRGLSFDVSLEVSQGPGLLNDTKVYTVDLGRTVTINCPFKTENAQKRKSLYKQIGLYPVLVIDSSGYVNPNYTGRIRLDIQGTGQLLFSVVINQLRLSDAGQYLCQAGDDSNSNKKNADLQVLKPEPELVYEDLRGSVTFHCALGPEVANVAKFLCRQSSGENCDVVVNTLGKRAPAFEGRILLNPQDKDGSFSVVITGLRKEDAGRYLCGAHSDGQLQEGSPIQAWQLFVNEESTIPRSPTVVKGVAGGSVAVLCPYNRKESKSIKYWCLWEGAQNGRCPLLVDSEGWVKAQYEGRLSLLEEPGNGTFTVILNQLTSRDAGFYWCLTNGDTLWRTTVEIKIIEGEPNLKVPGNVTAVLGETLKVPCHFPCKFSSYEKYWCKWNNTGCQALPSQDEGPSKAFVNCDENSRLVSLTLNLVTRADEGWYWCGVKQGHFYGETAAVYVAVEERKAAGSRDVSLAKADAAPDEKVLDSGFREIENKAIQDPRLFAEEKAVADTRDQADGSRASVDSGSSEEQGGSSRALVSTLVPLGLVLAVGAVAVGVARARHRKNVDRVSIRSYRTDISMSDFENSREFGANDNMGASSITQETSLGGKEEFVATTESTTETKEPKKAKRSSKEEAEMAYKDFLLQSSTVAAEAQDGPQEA

B1: Rab11-FIP1, endogenous in HEK293T cells (protein, UniProt Q6WKZ4 1-1283)
chain: MSLMVSAGRGLGAVWSPTHVQVTVLQARGLRAKGPGGTSDAYAVIQVGKEKYATSVSERSLGAPVWREEATFELPSLLSSGPAAAATLQLTVLHRALLGLDKFLGRAEVDLRDLHRDQGRRKTQWYKLKSKPGKKDKERGEIEVDIQFMRNNMTASMFDLSMKDKSRNPFGKLKDKIKGKNKDSGSDTASAIIPSTTPSVDSDDESVVKDKKKKSKIKTLLSKSNLQKTPLSQSMSVLPTSKPEKVLLRPGDFQSQWDEDDNEDESSSASDVMSHKRTASTDLKQLNQVNFTLPKKEGLSFLGGLRSKNDVLSRSNVCINGNHVYLEQPEAKGEIKDSSPSSSPSPKGFRKKHLFSSTENLAAGSWKEPAEGGGLSSDRQLSESSTKDSLKSMTLPSYRPAPLVSGDLRENMAPANSEATKEAKESKKPESRRSSLLSLMTGKKDVAKGSEGENPLTVPGREKEGMLMGVKPGEDASGPAEDLVRRSEKDTAAVVSRQGSSLNLFEDVQITEPEAEPESKSEPRPPISSPRAPQTRAVKPRLEVSPEAQPTARLPSPTDSPSSLPPLPSSSGQASVPSELGHGADTQSSESPSVFSSLSSPIAAPISTSTPIESWPLVDRGQAKSEGPPLLPKAELQTESLTPVPNSGSSALGSLFKQPSFPANKGTEDSLMGRTRETGTEKNTSSLELEESLPEQPETGRQEEELPRFPCKKQDYSPSSGEAQEVPFALSLSSDGAVSPVGELAAGGDRDLESQAGSLVESKARDAAEEVAPPLPMGASVPSIDSMMRKLEEMGLNLRKDQKKTKKRVSFSEQLFTEEAVAGAALLVEGHSSCPQELNPAWSVAGNASDGEPPESPHAEDSERESVTTPGPATCGAPASPADHLLLPSQEESFSEVPMSEASSAKDTPLFRMEGEDALVTQYQSKASDHEGLLSDPLSDLQLVSDFKSPIMADLNLSLPSIPEVASDDERIDQVEDDGDQVEDDGETAKSSTLDIGALSLGLVVPCPERGKGPSGEADRLVLGEGLCDFRLQAPQASVTAPSEQTTEFGIHKPHLGKSSSLDKQLPGPSGGEEEKPMGNGSPSPPPGTSLDNPVPSPSPSEIFPVTHSFPSSAHSDTHHTSTAESQKKATAEGSAGRVENFGKRKPLLQAWVSPSETHPVSAQPGAGTGSAKHRLHPVKPMNAMATKVANCSLGTATIISENLNNEVMMKKYSPSDPAFAYAQLTHDELIQLVLKQKETISKKEFQVRELEDYIDNLLVRVMEETPNILRIPTQVGKKAGKM
modifications: biotin (labelled by pIgR-BirA*)
Question: Which binding does the source give for B1 here?
Answer: The binding was “binds”.

— article PMC8508952
